The list shows a part of the results.
target: T1, OsSMF1 (Oryza sativa, UniProt Q6ZLB0 1-436); assay: protein-binding microarray (RPBM); PBS, 2% BSA, 51.3 ng/ul salmon testes DNA, 50 uM zinc acetate, 200 nM TF, 25 C, 1 h; high values mean tight binding; details: protein: recombinant; tags: N-terminal polyhistidine and DsRed monomer fusion (pET32a); chain copies: 2; label: CyDye5-dUTP incorporated in the synthesized complementary strand; 3' TTTTT single-stranded linker to array surface; dsDNA, one strand shown
T1 sequence: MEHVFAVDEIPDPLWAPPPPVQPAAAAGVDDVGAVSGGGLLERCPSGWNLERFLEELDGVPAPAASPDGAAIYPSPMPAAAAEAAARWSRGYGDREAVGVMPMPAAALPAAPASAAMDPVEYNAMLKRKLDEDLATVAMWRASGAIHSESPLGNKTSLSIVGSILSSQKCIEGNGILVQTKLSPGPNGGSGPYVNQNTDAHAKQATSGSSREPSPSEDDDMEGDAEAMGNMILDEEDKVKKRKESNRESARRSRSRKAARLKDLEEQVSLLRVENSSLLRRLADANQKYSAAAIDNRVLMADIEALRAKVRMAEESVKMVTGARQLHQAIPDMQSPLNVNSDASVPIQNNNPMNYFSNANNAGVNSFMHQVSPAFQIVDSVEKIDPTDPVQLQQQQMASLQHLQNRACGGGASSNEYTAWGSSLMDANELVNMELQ
Summary of the method: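 The binding signal is fluorescence intensity per array feature (arbitrary units). Readings came from an Axon 4000B scanner after a washed, 2% BSA-blocked, double-stranded custom Agilent array had been incubated for 1 h at 25 °C with 200 nM protein and 50 µM zinc acetate. The protein was a Ni–NTA-purified transcription factor fused N-terminally to polyhistidine and DsRed, expressed in E. coli BL21-CodonPlus.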

Sequence	binding signal
GGACTGCATGTGGAGGAGGGTGTTCATGGTGGCCAAGTCGCGGAGTCACCTAGTGCAG	3400 fluorescence intensity (a.u.)
TCCATTCAGCATGAATACGGTCTCACTAGAGACAACGTCACGGAGTCACCTAGTGCAG	4730 fluorescence intensity (a.u.)
CCAAAGACGACCGGTAATGCCACGTTTCATTTAGTGGTTTCGGAGTCACCTAGTGCAG	8720 fluorescence intensity (a.u.)
GTGCTTTGATTCCGCACCACGTTGCACTGCACACAGACCTCGGAGTCACCTAGTGCAG	5920 fluorescence intensity (a.u.)
CGTGATAAAGTACTCCACGTTGACAGTGACAAGTACTCCACGGAGTCACCTAGTGCAG	6180 fluorescence intensity (a.u.)
CTCAGTTAGTCCTCAGTGACCCACGTGCCTTTGAAGAATTCGGAGTCACCTAGTGCAG	3680 fluorescence intensity (a.u.)
TCAGCTGGCATGCATGGCAACATATATATGGCTGGAAGTACGGAGTCACCTAGTGCAG	40000 fluorescence intensity (a.u.)
TATGTCATCTATTAAAATAGGCGTAACTTTCTCATACGGACGGAGTCACCTAGTGCAG	31300 fluorescence intensity (a.u.)
CCTTGGCACAGCCACGTGAGCATGTCTAGGTGGACATGTGCGGAGTCACCTAGTGCAG	9990 fluorescence intensity (a.u.)
GTGGGTATGGGTAAGATTCGGTGAGGGCTGGGCTACCATGCGGAGTCACCTAGTGCAG	4580 fluorescence intensity (a.u.)
GTCGTCCGTCCTCGCTCCATTCGCTGTTGGGGCGCGCCAACGGAGTCACCTAGTGCAG	3440 fluorescence intensity (a.u.)
GGCCGCCGTGCTCTGGGTGGCCGCCGTCACCGTGCTCTTCCGGAGTCACCTAGTGCAG	3140 fluorescence intensity (a.u.)
TTCGTCCTCCTCGTACATCACGTTGTGACAGCGCATTTGCCGGAGTCACCTAGTGCAG	5910 fluorescence intensity (a.u.)
ATCGATCGTCCCTGAATTCAAACAGTACTTACATTATATACGGAGTCACCTAGTGCAG	15300 fluorescence intensity (a.u.)
AGTTAGCGCCTGACGGTGATGCTGATGCGACGTACTCTCCCGGAGTCACCTAGTGCAG	4850 fluorescence intensity (a.u.)
GGGCCCAACCGCCTCGGTGCGCCTCGCCTCCGCGCACCTGCGGAGTCACCTAGTGCAG	3350 fluorescence intensity (a.u.)
TCCTTCTTCAGCCCCGGCACGTCCGCCTTGAACACGTGCGCGGAGTCACCTAGTGCAG	3570 fluorescence intensity (a.u.)
TATCAGTATGTATTGGAACAGGTGACACACTCCAACTCCACGGAGTCACCTAGTGCAG	3460 fluorescence intensity (a.u.)
TTCGTCTGGCGACCGCGACTCCATCTTGACCCTTCCGGCCCGGAGTCACCTAGTGCAG	3370 fluorescence intensity (a.u.)
AACCACACTCACACGTGTCAGCCTGTCATCTACACATTTTCGGAGTCACCTAGTGCAG	16000 fluorescence intensity (a.u.)
CAATGACAACGATGCTGTCGCGTGTAAATCCACGTGGCATCGGAGTCACCTAGTGCAG	16500 fluorescence intensity (a.u.)

Sequence	binding signal
TGTAGGAGAACATCCCCACCTGCCCCAACCATGTCGGCGCCGGAGTCACCTAGTGCAG	9260 fluorescence intensity (a.u.)
AAACCATTCGCCCGATTTGATCCACATCACCACTTTGGTTCGGAGTCACCTAGTGCAG	10400 fluorescence intensity (a.u.)
CAATTCATCTATAACTAATTTAATAGTCAATTCATACAATCGGAGTCACCTAGTGCAG	44100 fluorescence intensity (a.u.)
ATATCCGGTTTTACAGTTAGGGGATGATTTTGTAACTCGACGGAGTCACCTAGTGCAG	4600 fluorescence intensity (a.u.)
CGCATGCAGGTAATCCACTACTACGTACTCCTGTATGCATCGGAGTCACCTAGTGCAG	3510 fluorescence intensity (a.u.)
CCACCGTCGCCGATTCCACCGCTGCCACGGACAACCCCGCCGGAGTCACCTAGTGCAG	3820 fluorescence intensity (a.u.)
TAGAATGCCATGTCAGTGAAACCACCCATATATACTACCACGGAGTCACCTAGTGCAG	5710 fluorescence intensity (a.u.)
TTACTTGTATATGAGCATGCATGCTTAGCTCAATCCCTTCCGGAGTCACCTAGTGCAG	3860 fluorescence intensity (a.u.)
CAAACCATCGCATGTGCGGACGCGTTAATGTCGTTATTACCGGAGTCACCTAGTGCAG	3200 fluorescence intensity (a.u.)
GCTACCCCGTACTTCACCGCCTGAGTCACTAACCCAAGCCCGGAGTCACCTAGTGCAG	6550 fluorescence intensity (a.u.)
TTGTTTATTTTCGTTGTCACGGGGTATTTTCTAGTTATCTCGGAGTCACCTAGTGCAG	3770 fluorescence intensity (a.u.)
GTCCACGGCGCCGCCGCACGGGACGTCGACCTGCACCGACCGGAGTCACCTAGTGCAG	16000 fluorescence intensity (a.u.)
ATGGTTACGTAAATTCTTAGTACTAACACTGACATGTCATCGGAGTCACCTAGTGCAG	7000 fluorescence intensity (a.u.)
CCGGAGGTCGAGCGCCGCGTCCGTGAGGGACACGCCGCCGCGGAGTCACCTAGTGCAG	3170 fluorescence intensity (a.u.)
GACGGGGCGGTGACAGCTACCTCAGCGAGGCGGCGTCGGCCGGAGTCACCTAGTGCAG	4360 fluorescence intensity (a.u.)
TGCGCAAAGAATCCGGCTGGGTGCCTGACGTGGATCCTTGCGGAGTCACCTAGTGCAG	17800 fluorescence intensity (a.u.)
AGAAACTTGTATGCCAATATGTGTCATGCGACCATCTCTGCGGAGTCACCTAGTGCAG	5920 fluorescence intensity (a.u.)
TTCCCTAGTGGATGCATGCATTCATACCATAGGTCAGCTGCGGAGTCACCTAGTGCAG	3450 fluorescence intensity (a.u.)
GAGAACACCCGGGTGGCGCGCCGTGACACGCACGCGCCCCCGGAGTCACCTAGTGCAG	4260 fluorescence intensity (a.u.)
GCGTCGGCGTCGTCGGCCGTCAACGTCAGCGAGCTCGTCACGGAGTCACCTAGTGCAG	6120 fluorescence intensity (a.u.)
GTCGTTTATGCGTACGTAAGAGATTAGTTCCCATCACATTCGGAGTCACCTAGTGCAG	3320 fluorescence intensity (a.u.)

Looked up above.
Entry for TATCAGTATGTATTGGAACAGGTGACACACTCCAACTCCACGGAGTCACCTAGTGCAG under binding signal: 3460 fluorescence intensity (a.u.)
Entry for TATGTCATCTATTAAAATAGGCGTAACTTTCTCATACGGACGGAGTCACCTAGTGCAG under binding signal: 31300 fluorescence intensity (a.u.)
